Assay results taken from article PMC11882097.
Results are given in words; binding and its absence hold for the method and conditions named. Binding seen in cells or lysates may run through a third protein. Some binding calls cover weakened binding; strength is not graded here.

Molecular target: T1, NbSGS3-Y^C (N. benthamiana) (UniProt X4YFK1)
T1 sequence: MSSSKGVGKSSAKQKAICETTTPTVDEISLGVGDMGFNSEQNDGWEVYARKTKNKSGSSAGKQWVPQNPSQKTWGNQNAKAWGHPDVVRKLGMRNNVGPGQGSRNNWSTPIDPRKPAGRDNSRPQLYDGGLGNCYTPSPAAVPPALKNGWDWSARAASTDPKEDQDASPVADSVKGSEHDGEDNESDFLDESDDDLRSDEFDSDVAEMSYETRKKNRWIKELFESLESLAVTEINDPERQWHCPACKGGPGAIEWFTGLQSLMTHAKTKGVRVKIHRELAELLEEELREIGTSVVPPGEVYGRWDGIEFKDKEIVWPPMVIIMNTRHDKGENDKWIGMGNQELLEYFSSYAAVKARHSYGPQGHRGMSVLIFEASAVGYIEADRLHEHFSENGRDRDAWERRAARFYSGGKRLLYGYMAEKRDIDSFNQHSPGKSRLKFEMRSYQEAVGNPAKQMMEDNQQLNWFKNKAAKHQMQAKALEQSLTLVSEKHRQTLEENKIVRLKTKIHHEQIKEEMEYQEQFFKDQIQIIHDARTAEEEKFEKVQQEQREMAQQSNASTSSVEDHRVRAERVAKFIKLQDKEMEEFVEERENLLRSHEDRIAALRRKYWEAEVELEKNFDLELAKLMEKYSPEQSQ
Assay: split reporter; BiFC of YN and YC fusions co-agroinfiltrated 1:1 into N. benthamiana leaves; YFP signal by confocal microscopy at 48-72 hpi

B1: NbSGS3-Y^N (protein, UniProt X4YFK1 1-635)
chain: T1 sequence
With B1 the binding was “binds”.
